Publication PMC4598761
Results are given in words; binding and its absence hold for the method and conditions named. Tags and fused reporters may be left off the sequences shown.

Protein sequences, listed by entry. Tags and fused reporters are not part of them.
UniProt Q9Y3R4: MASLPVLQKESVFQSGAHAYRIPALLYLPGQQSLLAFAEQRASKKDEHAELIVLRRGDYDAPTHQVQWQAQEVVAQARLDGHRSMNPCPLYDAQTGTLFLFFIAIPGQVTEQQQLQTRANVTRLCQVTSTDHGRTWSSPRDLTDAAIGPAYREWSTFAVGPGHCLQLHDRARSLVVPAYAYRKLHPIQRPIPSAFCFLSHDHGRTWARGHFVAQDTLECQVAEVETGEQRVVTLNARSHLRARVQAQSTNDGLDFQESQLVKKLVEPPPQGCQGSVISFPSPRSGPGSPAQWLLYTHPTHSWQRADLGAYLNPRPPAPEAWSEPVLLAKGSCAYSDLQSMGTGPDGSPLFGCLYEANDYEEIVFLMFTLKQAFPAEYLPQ

Biological target: T1, (His)6-tagged yeast PNGase (yeast) (UniProt Q02890)
T1 sequence: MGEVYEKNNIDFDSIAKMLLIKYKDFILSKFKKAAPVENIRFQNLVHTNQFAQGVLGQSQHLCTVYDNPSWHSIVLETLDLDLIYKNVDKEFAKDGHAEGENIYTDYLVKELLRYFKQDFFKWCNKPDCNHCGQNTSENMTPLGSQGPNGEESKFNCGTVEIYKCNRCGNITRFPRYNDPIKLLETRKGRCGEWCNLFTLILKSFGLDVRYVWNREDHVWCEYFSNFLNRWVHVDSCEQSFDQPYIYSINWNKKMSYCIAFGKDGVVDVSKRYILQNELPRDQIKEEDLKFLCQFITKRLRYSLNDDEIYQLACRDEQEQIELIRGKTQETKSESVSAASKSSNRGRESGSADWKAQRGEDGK
Experiment: pull-down; purified recombinant proteins mixed overnight at 4 °C (1.5 mg/mL each), precipitated with 20 μL Ni-Sepharose 6 Fast Flow for 1 h at 4 °C (His-tagged protein held), washed three times with PBS, western blotting; both purified

Substance: GST-NEU2 (recombinant cytosolic sialidase NEU2) (from UniProt Q9Y3R4 1-380) (enzyme)
- binding: no binding
